For at least one entry, the source does not settle the construct or the ends of the probe. For some assays here: Where cells or extracts were used, other partners may take part. For some assays here: Weaker means in comparison with the reference protein, sequence or condition of that experiment. Protein sequences can lack the tags named with them.
Key:
[1] = target: T1, VEZF1-3xFlag (Homo sapiens) (UniProt Q14119); experiment: EMSA; conditions: 100 mM K+, 10 uM Zn2+, EMSA: 25 nM DNA, 10 mM Tris-HCl pH 7.5, 100 mM KCl, 10 uM ZnCl2, 1 mM DTT, 3% glycerol, on ice 30 min, 6% PAGE in TBE pH 8.3, 4 C, recombinant protein, residues 1-521, protein details: C-terminal 3xFlag, label: 5'-TAMRA, folded or branched DNA
T1 sequence (looked up): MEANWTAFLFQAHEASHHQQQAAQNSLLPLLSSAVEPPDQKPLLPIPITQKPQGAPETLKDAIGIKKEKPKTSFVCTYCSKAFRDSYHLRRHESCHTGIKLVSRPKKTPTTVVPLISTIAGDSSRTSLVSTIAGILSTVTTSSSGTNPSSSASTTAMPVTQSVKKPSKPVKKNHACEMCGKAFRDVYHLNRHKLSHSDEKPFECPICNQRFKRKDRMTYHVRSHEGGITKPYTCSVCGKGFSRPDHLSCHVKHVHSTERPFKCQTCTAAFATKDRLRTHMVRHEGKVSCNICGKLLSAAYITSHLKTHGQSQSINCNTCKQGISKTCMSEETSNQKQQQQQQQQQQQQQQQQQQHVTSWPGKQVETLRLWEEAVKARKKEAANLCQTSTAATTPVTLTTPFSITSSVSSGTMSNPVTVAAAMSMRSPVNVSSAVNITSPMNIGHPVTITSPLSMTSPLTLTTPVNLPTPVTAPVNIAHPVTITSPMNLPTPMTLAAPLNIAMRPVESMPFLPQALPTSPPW

[2] = target: T2, VEZF1 (endogenous) (Homo sapiens) (UniProt Q14119); experiment: pull-down, SILAC LC-MS/MS; conditions: protein in an extract, label: biotin
T2 sequence (looked up, limits assumed): T1 sequence (looked up)

Sequence: GTGGGAGGTGGAAGTGAAAGAAGGGAAGAGCAGGGAGAGTGGGCC [R1G4-1]
- Kd ([1]; value assigned to G4-1 by order): 649 nM

Sequence: TCGGGAGTGTGGAGGGAGGTGCTGGGCCTGAGCTGAGAGCAGCTTAGGGGGCA [R1G4-2]
- Kd ([1]; value assigned to G4-2 by order): 730 nM

Sequence: AAAGGGTTAGGGTTAGGGTTAGGGAA [hTEL G4 biotin probe]
- binding result ([2]; folded or branched DNA): binds

Sequence: AAAGGGTTAGTGTTAGTGTTAGGGAA [hTEL M4 biotin probe]
- binding result ([2]; single-stranded DNA): binds more weakly

Sequence: TGAGGGTGAGGAGTGTGGGGA [MYC M4 biotin probe]
- binding result ([2]; single-stranded DNA): binds more weakly
